Experimental findings from patent publication US6617427 are described below.

These are yes or no findings as the source states them, for the method shown. For some assays here: Binding seen in cells or lysates may run through a third protein. Some results given as binding are weak or reduced against the parent protein; the word gives no strength. For some assays here: Where a sequence is shown, tags or fusion partners need not be part of it.

Assay [1] addresses Raf-1, wild type (UniProt P04049). Description: co-immunoprecipitation; recapitulation.
For a further assay, the target named is Raf-1 K375M, kinase-dead (UniProt P04049). Description: co-immunoprecipitation (data not shown).
The target in a further assay is v-raf (UniProt P00532). Description: co-immunoprecipitation (data not shown).
Assay [2] addresses Raf-1 Y340D, constitutively active (UniProt P04049). The assay is described as follows: co-immunoprecipitation from transfected COS-1 cells.
In assay [3] the target is Raf-1, wild type (UniProt P04049). Described as above.
The target in assay [4] is T1, FLAG-tagged Tvl-1 (murine) (UniProt Q9Z205).
T1 sequence: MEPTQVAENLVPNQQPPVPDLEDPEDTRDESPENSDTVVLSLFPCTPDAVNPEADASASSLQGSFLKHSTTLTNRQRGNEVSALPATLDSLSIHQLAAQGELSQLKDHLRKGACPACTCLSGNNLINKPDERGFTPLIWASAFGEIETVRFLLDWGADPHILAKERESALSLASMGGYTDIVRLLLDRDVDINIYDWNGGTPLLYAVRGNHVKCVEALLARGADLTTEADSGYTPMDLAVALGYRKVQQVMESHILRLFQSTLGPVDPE
Description: co-immunoprecipitation of HA- and FLAG-tagged Tvl-1 from COS-1 cells.

For assay [5], the target named is Raf-1, wild type (UniProt P04049). The assay is described as follows: Raf-1 immunoprecipitation from baculovirus-infected Sf9 cells.
For another assay, the target named is LexA-Raf-1 (human) (UniProt P0A7C2+P04049). Description: yeast two-hybrid (data not shown).

“FLAG-tagged Tvl-1 (from UniProt Q9Z205 1-269)”: the binding result is on record as “binds” in the assay with Raf-1, wild type [1]; “binds” with Raf-1 K375M, kinase-dead; “binds” in the assay with v-raf; “binds” in assay [2]; “binds” with Raf-1, wild type [3].
As for “HA-tagged wild type Tvl-1 (from UniProt Q9Z205 1-269)”, the binding result in assay [4] was “binds”.
In the case of “Tvl-1, full length (269 amino acids, long form) (from UniProt Q9Z205 1-269)”, the binding entry with Raf-1, wild type [5] is “binds”; with LexA-Raf-1 (human), “binds”.
